Percent effect of library compounds

Chains of the proteins cited; added tags and fusions are not shown. Residues count along the entry.
UniProt Q4DA54, 1-478: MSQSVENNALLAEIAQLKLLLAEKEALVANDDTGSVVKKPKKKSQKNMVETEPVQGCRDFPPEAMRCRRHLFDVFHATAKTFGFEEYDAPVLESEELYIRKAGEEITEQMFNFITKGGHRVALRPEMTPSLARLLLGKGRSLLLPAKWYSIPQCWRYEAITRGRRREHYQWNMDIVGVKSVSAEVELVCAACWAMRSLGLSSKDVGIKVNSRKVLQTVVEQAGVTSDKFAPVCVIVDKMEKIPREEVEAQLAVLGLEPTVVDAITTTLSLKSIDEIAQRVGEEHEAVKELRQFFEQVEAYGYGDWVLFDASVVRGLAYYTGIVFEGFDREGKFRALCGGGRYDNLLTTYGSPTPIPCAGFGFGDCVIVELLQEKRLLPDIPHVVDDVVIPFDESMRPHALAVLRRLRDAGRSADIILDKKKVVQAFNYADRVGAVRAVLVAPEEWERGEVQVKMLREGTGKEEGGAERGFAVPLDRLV
UniProt P9WNZ1, whole entry: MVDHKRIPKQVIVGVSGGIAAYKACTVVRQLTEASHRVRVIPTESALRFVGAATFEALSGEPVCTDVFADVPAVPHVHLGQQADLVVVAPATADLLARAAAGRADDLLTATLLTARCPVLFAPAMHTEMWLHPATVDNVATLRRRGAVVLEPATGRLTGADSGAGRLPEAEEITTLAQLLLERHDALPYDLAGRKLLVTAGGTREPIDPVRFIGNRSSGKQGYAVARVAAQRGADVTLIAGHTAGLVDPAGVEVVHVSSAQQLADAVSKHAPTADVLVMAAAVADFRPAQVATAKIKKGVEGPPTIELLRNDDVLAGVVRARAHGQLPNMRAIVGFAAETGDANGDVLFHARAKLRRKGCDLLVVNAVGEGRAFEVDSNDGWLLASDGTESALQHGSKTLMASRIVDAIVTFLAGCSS
UniProt A4I591, 1-473: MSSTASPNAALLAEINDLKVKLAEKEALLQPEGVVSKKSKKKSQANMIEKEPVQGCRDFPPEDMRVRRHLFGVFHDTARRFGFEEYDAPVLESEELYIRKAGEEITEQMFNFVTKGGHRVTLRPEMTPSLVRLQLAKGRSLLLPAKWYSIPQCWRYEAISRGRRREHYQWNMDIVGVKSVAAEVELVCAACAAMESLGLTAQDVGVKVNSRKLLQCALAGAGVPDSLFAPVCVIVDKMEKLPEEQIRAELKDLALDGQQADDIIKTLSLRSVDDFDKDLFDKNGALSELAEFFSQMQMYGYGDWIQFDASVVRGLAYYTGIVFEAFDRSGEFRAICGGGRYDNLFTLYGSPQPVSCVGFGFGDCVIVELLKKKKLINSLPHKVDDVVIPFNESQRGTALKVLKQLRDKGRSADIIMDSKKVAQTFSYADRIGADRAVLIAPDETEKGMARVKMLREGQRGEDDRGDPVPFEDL

TcHisRS: 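Histidine-tRNA ligase, Trypanosoma cruzi CL Brener (UniProt Q4DA54). Enzyme assay of histidyl-tRNA synthetase; the read-out is not stated. Concentration: 30 µM. The record gives no direction; compounds that gave an IC50 in retests scored well above the rest, so higher reads as stronger inhibition. Of about 69,000 compounds tested this way, about 31 (0.045%) reached 50% or more in at least one test.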
CoaBC: 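Coenzyme A biosynthesis protein CoaBC, Mycobacterium tuberculosis (UniProt P9WNZ1). Enzyme assay of CoaBC with a phosphate dye (Biomol Green) read at 650 nm. Concentration: 30 µM. Direction is inferred from only a few compounds that gave an IC50; most scored high, so higher reads as stronger inhibition. Most strong results did not repeat in a second test. About 67,000 compounds were tested under these conditions; 0.06% (about 40) showed 50% or more at least once.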
LiHisRS: 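Histidine-tRNA ligase, Leishmania infantum (UniProt A4I591). Enzyme assay of histidyl-tRNA synthetase; the read-out is not stated. Compounds at 30 µM. Higher reads as stronger inhibition (inferred: compounds with an IC50 in retests scored well above the rest). The assay is labelled LdHisRS but filed under L. infantum. Size under these conditions: about 69,000 compounds, about 410 of them at 50% or above in at least one test.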

Values are the deposited “Percent Effect”, in %.
The controls that fix the scale are not given in the record; negative values are as filed.
The compounds are a random part of those screened.

structure	TcHisRS	CoaBC	LiHisRS
Cn1cc(C(O)CNC(=O)c2cc(Br)ccc2Cl)cn1 (stereo unspecified)	5	1.937	6.522
Cc1ccc(N2CCCC3(COCCN(c4ccccn4)C3)C2)nn1 (stereo unspecified)	16.08	3.716	22.34
CSCC(C)(O)CNc1ccccn1 (stereo unspecified)	7.937	5.579	10.96
Cc1nc(N2CCOCC2)nc(C)c1NC(=O)COc1ccccc1	1.031	4.863	8.696
COc1ccc2c(c1)OCC(Cc1cncc(N)c1)C2 (stereo unspecified)	13.76	-5.72	9.091
Cn1cc(CCCNC(=O)NC2CCN(c3ccccc3)C2=O)cn1 (stereo unspecified)	4.813	3.913	10.99
COCC(=O)NC[C@@]1(COc2cccnc2)C[C@@H](O)[C@@H](O)C1	4.478	8.448	2.703
COc1ccccc1CNc1ncnc2c1NC(=O)CN2	1.327	-2.103	15.04
COCCN1C(=O)C[C@H]2[C@H]1CCN2C(=O)c1ccc[nH]1	2.632	2.836	22.58
Fc1ccc(-c2nc(CNC3CCc4ncnn4C3)co2)cc1 (stereo unspecified)	4.023	-1.677	10.43
CCc1cnc(N2CCCC(CCC(N)=O)C2)nc1 (stereo unspecified)	8.04	4.207	17.65
Cc1nn(C)c2ncnc(N3CCCC(C)(O)C3)c12 (stereo unspecified)	10.4	3.247	11.48
CSCc1cc(C(=O)NC2(C#N)CCSC2)ccc1F (stereo unspecified)	4.741	1.648	16.46
CC(C)CC(=O)N1CCCn2cnc(CN3CCCC3=O)c2C1	2.542	-4.846	5.66
Cn1cc(N2CCN(c3ccc(C#N)cc3F)CC2=O)cn1	8.642	2.822	5.882
COc1cc(CN(C(=O)Nc2cccnc2OC)C2CC2)ccc1O	-0.7634	2.651	2.74

For reference, 2 entries once more:

| structure | TcHisRS | CoaBC | LiHisRS |
|---|---|---|---|
| `Cn1cc(CCCNC(=O)NC2CCN(c3ccccc3)C2=O)cn1` (stereo unspecified) | 4.813 | 3.913 | 10.99 |
| `CSCc1cc(C(=O)NC2(C#N)CCSC2)ccc1F` (stereo unspecified) | 4.741 | 1.648 | 16.46 |

Data taken from ChEMBL document CHEMBL3988442, “University of Dundee, Small-Polar-MMV Screening Library” (2021).